In patent US20170348438A1 (CASE WESTERN RESERVE UNIVERSITY, published 2017):
Results are given in words; binding and its absence hold for the method and conditions named. Some results given as binding are weak or reduced against the parent protein; the word gives no strength.

Chains of the proteins cited; added tags and fusions are not shown.
UniProt P06702: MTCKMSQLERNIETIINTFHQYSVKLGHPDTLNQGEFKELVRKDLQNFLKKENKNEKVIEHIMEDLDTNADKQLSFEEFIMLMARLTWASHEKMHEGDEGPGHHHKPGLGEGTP

What follows are binders tested against His-tagged MRP-14 (UniProt P06702) (assay: SPR, His-tagged MRP-14 on Ni-NTA chip).
In the case of HNHMADPGGGS (C-terminal amidation) [MTP3 synthetic peptide …], the binding is reported as “binds”. With ACPTGLHHACGGGS (C-terminal amidation; called cyclic) [MTP9 synthetic peptide …] the binding was “binds”. With ASSHIHHGGGS (C-terminal amidation) [MTP2 synthetic peptide …] the binding was “binds”. For ACNSHRHGACGGGS (C-terminal amidation; called cyclic) [MTP5 synthetic peptide …], the binding was “binds”.
